# Reference: PubChem BioAssay AID504467 (National Center for Advancing Translational Sciences (NCATS), 2011)
# Among all 330,000 compounds or so, about 7,700 (2.3%) were called active. The inconclusive results got no clear call from the source; some entries with a clear call stand among them for comparison. Calls follow the shape of the dose curve; as a rule, active = well fitted inhibition curve with a large enough effect; inconclusive = small, poorly fitted or top-dose-only effect, or effect the other way; inactive = flat fitted curve, though single readings scatter. Potencies beside an inconclusive call are fits to weak or partial responses and may not hold up.
# Experiment: qHTS screen for small molecules that inhibit ELG1-dependent DNA repair in human embryonic kidney (HEK293T) cells expressing luciferase-tagged ELG1; also: nearly all actives have a fitted effect of over 55% in size
# Details: HEK293T ELG1-luciferase reporter, luminescence, 16 h, DNA damage induced by 5-fluorouridine; activity change, negative = inhibition: at 46.1 µM (top of the series)
# Procedure, shortened: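 HEK293T cells expressing luciferase-tagged ELG1 (2,000/well) received 5-Fluorouridine plus compound or DMSO for 16 hr at 37 °C. Luciferase was read by ONE-Glo luminescence after 30 min at room temperature.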
# % is scaled to controls: 0 for no effect and ±100 for the full control effect; potency is read from the fitted curve at half-maximal effect.
SMILES,"activity change, negative = inhibition",Potency
CC(OC(=O)Cn1cc(C(F)(F)F)ccc1=O)C(=O)N(C)c1ccccc1 (stereo unspecified),inactive: -14.1%,–
COc1cc2c3nnc(-c4ccc(F)cc4)c-3cn(Cc3ccccc3)c2cc1OC,inactive: -4.02%,–
Cc1ccc(C(=O)NC2CCc3ccccc3C2=O)cc1 (stereo unspecified),–,"inconclusive: 16.4 µM [activator, partial curve]"
COc1ccc(NC(=O)c2sc(=S)[nH]c2N)cc1,–,"inconclusive: 17.8 µM [activator, partial curve, poor fit]"
Cc1cc(/C=N\NC(=O)COc2cccc3cccnc23)c(C)n1-c1ccccc1,–,"inconclusive: 29.1 µM [activator, partial curve, poor fit]"
COc1ccc(C(=O)N2CCc3cc4c(cc3C2C)OCCCO4)cc1 (stereo unspecified),inactive: -23.8%,–
CCc1ccc(N(CC(=O)NC(C)C)C(=O)CCC(=O)Nc2ccccn2)cc1,inactive: 3.35%,–
Cc1cc(OCC(=O)NCCc2c[nH]c3ccccc23)c2c(C)c(C)c(=O)oc2c1,–,"inconclusive: 1.46 µM [inhibitor, single point]"
Cc1cccc(NC(=O)CSc2nnc(CNC(=O)c3ccc(S(=O)(=O)N(C)C)cc3)n2-c2ccccc2)c1,inactive: -12.3%,–
CCSc1nc2ccccc2n1C(=O)c1ccc(S(=O)(=O)N2CCCCCC2)cc1,inactive: 7.94%,–
COc1ccccc1C(=O)NCCNc1nc2cc(C)cc(C)c2cc1C#N,–,active: 9.2 µM
CC(NC(=S)Nc1cccc(C(F)(F)F)c1)C(C)(C)C (stereo unspecified),–,"inconclusive: 29.1 µM [inhibitor, single point]"
COc1ccc(C(=O)NCC(=O)NC2=NCCS2)cc1,–,"inconclusive: 18.4 µM [activator, single point]"
CCOc1ccccc1NC(=O)Nc1cccc(S(N)(=O)=O)c1,inactive: 3.71%,–
O=C(COc1cccc2c1CCNC2=O)NC1CCCCC1,–,"inconclusive: 14.6 µM [activator, single point]"
Cc1ccc(C2(c3noc(CN(C)Cc4cccnc4)n3)CCCC2)cc1,inactive: 7.87%,–
COc1ccc(S(=O)(=O)N2CCOC2CNC(=O)C(=O)NCCCN2CCOCC2)cc1C (stereo unspecified),inactive: -2.18%,–
CCOC(=O)c1nnn(-c2ccc(OC)cc2)c1N,–,"inconclusive: 29.1 µM [activator, single point]"
CCCCNC(=O)Nc1cc(C(=O)OC)ccc1C,–,"inconclusive: 18.4 µM [inhibitor, partial curve, poor fit]"
CCCC(=O)c1ccc(N2CCC(C)CC2)c(F)c1,–,"inconclusive: 18.4 µM [activator, partial curve]"
Cc1nn(-c2ccccc2)c(C)c1/C=N/NC(=O)c1cc(-c2ccc(Cl)s2)[nH]n1,–,"inconclusive: 13 µM [inhibitor, partial curve]"
Oc1ccc(/C=N/Nc2cccc(Cl)n2)c(O)c1,–,"inconclusive: 5.17 µM [activator, full curve]"
Nc1ccc(N2CCCCC2)cc1N1CCCCC1,inactive: 0.804%,–
CCOc1ccccc1N(C)C(=O)Cn1ncc2c([nH]c3ccc(C)cc32)c1=O,–,"inconclusive: 32.6 µM [inhibitor, single point]"

# Three entries drawn at random from the list so far, as already listed:
SMILES,"activity change, negative = inhibition",Potency
O=C(COc1cccc2c1CCNC2=O)NC1CCCCC1,–,"inconclusive: 14.6 µM [activator, single point]"
Oc1ccc(/C=N/Nc2cccc(Cl)n2)c(O)c1,–,"inconclusive: 5.17 µM [activator, full curve]"
CCOc1ccccc1N(C)C(=O)Cn1ncc2c([nH]c3ccc(C)cc32)c1=O,–,"inconclusive: 32.6 µM [inhibitor, single point]"

# The list goes on.

SMILES,"activity change, negative = inhibition",Potency
CCN(CC(=O)Nc1ccc(NC(C)=O)cc1)C(=O)C1COc2ccccc2O1 (stereo unspecified),inactive: 10.1%,–
COc1cc(/C=C2/N=C(C3CCCCC3)OC2=O)cc(OC)c1OC,inactive: 8.38%,–
Cc1nc(C(=O)NNC(=O)c2ccc(Cl)cc2)c(C(F)(F)F)o1,–,"inconclusive: 8.2 µM [inhibitor, partial curve, poor fit]"
COc1ccc(/C=C(/NC(=O)c2ccc(OC)c(OC)c2)C(=O)NCCc2c[nH]c3ccccc23)cc1,–,"inconclusive: 29.1 µM [inhibitor, single point]"
O=C(CS(=O)(=O)Cc1ccccc1)N1CCc2ccccc2C1,–,"inconclusive: 20.6 µM [activator, single point]"
O=C(Nc1ncnc2sc3c(c12)CCCCC3)c1ccc(F)cc1,–,"inconclusive: 25.9 µM [inhibitor, partial curve, poor fit]"
Cc1cc(=O)oc2cc(NC(=O)c3cccc(S(=O)(=O)N(C)C)c3)ccc12,–,"inconclusive: 4.61 µM [activator, full curve]"
Fc1ccc(-c2csc(=S)[nH]2)cc1,–,"inconclusive: 23.1 µM [activator, single point]"
Cc1ccccc1C(=O)Nc1ccccc1-c1nnn(CC(=O)Nc2ccc3c(c2)OCCO3)n1,inactive: 9.96%,–
O=C(Nc1nccs1)C(NS(=O)(=O)c1ccc(Br)s1)c1ccccc1 (stereo unspecified),–,"inconclusive: 8.2 µM [inhibitor, single point]"
C=CCn1c(O)c(N=Nc2ccccc2C)c2ccccc21,inactive: -13.2%,–
COc1ccc(NC(=O)CN(C)C(=O)CSCc2c(C)noc2C)cc1,inactive: 15.4%,–
O=C(O)CC12CC3CC(C1)CC(n1ncc(NCc4ccccc4Cl)c(Cl)c1=O)(C3)C2,–,"inconclusive: 16.4 µM [activator, single point]"
CCOC(=O)Cn1cnc(-c2ccc([N+](=O)[O-])cc2)c1,–,"inconclusive: 16.4 µM [activator, partial curve]"
C[C@H](NC(=O)c1ccccc1)C(=O)N1CCC2(CC1)NCCc1[nH]cnc12,inactive: 12.9%,–
COc1ccc(NC(=O)COC(=O)c2c(-c3ccccc3)noc2C)cc1,–,"inconclusive: 7.31 µM [inhibitor, partial curve, poor fit]"
O=C(O)c1ccc(-c2ccccc2)[nH]1,inactive: 0.636%,–
COCC(C)n1c(SCC(=O)NC(=O)Nc2ccc3c(c2)OCCO3)nc2ccccc2c1=O (stereo unspecified),–,"inconclusive: 29.1 µM [inhibitor, single point]"
O=C(O)c1cccc(NC2=C(Cl)C(=O)c3ccccc3C2=O)c1,–,"inconclusive: 2.31 µM [activator, partial curve]"
CC1Cc2ccccc2N1C(=O)CCn1cccn1 (stereo unspecified),inactive: 15.3%,–
CC(C)C[C@@H](CO)N1CCN(CC(C)C)CCC1=O,inactive: -4.77%,–
O=C(CNc1cc(S(=O)(=O)N2CCOCC2)ccc1NCC1CCCO1)Nc1cccc(F)c1 (stereo unspecified),–,"inconclusive: 8.2 µM [inhibitor, partial curve, poor fit]"
O=C(NCCCN1CCN(Cc2ccccc2)CC1)c1nnc(Cc2c(F)cccc2Cl)o1,inactive: -29.1%,–
C=CC(C)Sc1nc2c(c(=O)n(C)c(=O)n2C)n1Cc1ccccc1Cl (stereo unspecified),–,"inconclusive: 23.1 µM [inhibitor, single point]"

SMILES,"activity change, negative = inhibition",Potency
c1ccc(C2CCC3(CC2)Oc2ccccc2C2CC(c4cccnc4)=NN23)cc1 (stereo unspecified),–,"inconclusive: 29.1 µM [activator, single point]"
C=C(C)C1CC=C(C)/C(=N/NC(=O)c2ccc(NC(=O)c3cccc(C)c3)cc2)C1 (stereo unspecified),–,"inconclusive: 13 µM [inhibitor, partial curve]"
O=C(Nc1nccs1)c1ccc(CSc2nnnn2-c2ccccc2)cc1,–,active: 23.1 µM
O=C(OCC(=O)N1CCCCC1)c1cc2ccccc2cc1O,–,"inconclusive: 18.4 µM [activator, partial curve]"
O=P(COCCOCP(=O)(c1ccccc1)c1ccccc1)(c1ccccc1)c1ccccc1,inactive: -14.1%,–
CN(C)S(=O)(=O)c1cccc(N=C2SCCN2Cc2ccccc2)c1,–,active: 18.3 µM
COc1ccc2[nH]cc(/C=C/C(=O)c3ccccc3)c2c1,–,"inconclusive: 3.66 µM [activator, full curve]"
O=C(CN1CCCC1)Nc1nc(-c2ccc3c(c2)CCN3C(=O)c2ccccc2F)cs1,–,"inconclusive: 10.3 µM [activator, partial curve, poor fit]"
COC(=O)c1ccccc1NC(=O)c1ccc(NC(=O)C2CCCO2)cc1 (stereo unspecified),–,"inconclusive: 18.3 µM [inhibitor, single point]"
O=C(C(NS(=O)(=O)c1cccs1)c1ccccc1)N1CCN(c2ccccc2)CC1 (stereo unspecified),–,"inconclusive: 16.4 µM [inhibitor, single point]"
Cc1ccccc1-c1nc(CN2CCC(C(=O)N3CCN(c4ccccn4)CC3)CC2)c(C)o1,–,"inconclusive: 23.1 µM [inhibitor, partial curve]"
O=C(Nc1ccc2c(c1)OC1(CCCC1)O2)C1CC1,–,"inconclusive: 14.6 µM [activator, partial curve]"
CN(Cc1nc2ccccc2n1C)S(=O)(=O)c1ccc(Cl)cc1,–,"inconclusive: 20.6 µM [inhibitor, single point]"
CC(CCc1ccccc1)NC(=O)CN1CCN(Cc2ccc(Cl)cc2)C1=O (stereo unspecified),–,"inconclusive: 29.1 µM [inhibitor, single point]"
O=C(Cn1cc(C(F)(F)F)cc(Cl)c1=O)NCc1ccc(F)cc1,–,"inconclusive: 23.1 µM [activator, partial curve]"
O=C(c1ccco1)N(CCCN1CCOCC1)c1nc(-c2ccc(Cl)cc2)cs1,–,active: 20.6 µM
CCN1CCN(c2ccc(S(=O)(=O)N3CCOCC3)cc2NC(=O)c2ccccc2OC(F)F)CC1,–,"inconclusive: 16.4 µM [inhibitor, partial curve, poor fit]"
COc1ccc(/C=C/C(=O)c2oc3ccc(F)cc3c2C)cc1,–,"inconclusive: 29.1 µM [activator, single point]"
CCN(CCCNC(=O)C1CCN(S(=O)(=O)CC)CC1)c1ccccc1,inactive: -7.44%,–
Cc1cnc(C(=O)Oc2ccc(-c3ccccc3)cc2)cn1,inactive: 22.2%,–
COc1ccc(NC(=O)N(Cc2cc3cc(OC)ccc3[nH]c2=O)CC2CCCO2)cc1 (stereo unspecified),–,active: 10.3 µM
O=C(Nc1ccc(CN2CCCCC2)cc1)c1ccc(Br)o1,–,"inconclusive: 18.4 µM [activator, partial curve]"
O=C(NC(Cc1ccccc1)c1nc2ccccc2[nH]1)c1cccc([N+](=O)[O-])c1 (stereo unspecified),inactive: 1.69%,–

# Given tab-delimited: 2 of the compounds above.
SMILES	activity change, negative = inhibition	Potency
Nc1ccc(N2CCCCC2)cc1N1CCCCC1	inactive: 0.804%	–
CCOc1ccccc1N(C)C(=O)Cn1ncc2c([nH]c3ccc(C)cc32)c1=O	–	inconclusive: 32.6 µM [inhibitor, single point]
